No constants are given. Whether binding was seen depends on the method and setting. Binding seen in cells or lysates may run through a third protein. Some results given as binding are weak or reduced against the parent protein; the word gives no strength. Each block holds one binder with its values, some of them ahead of it.
Legend:
[1] = target: T1, Nuclear factor erythroid 2 (NFE2)-related factor 2 (Nrf2) (human (endogenous in HeLa)) (UniProt Q16236); experiment: co-IP
T1 sequence: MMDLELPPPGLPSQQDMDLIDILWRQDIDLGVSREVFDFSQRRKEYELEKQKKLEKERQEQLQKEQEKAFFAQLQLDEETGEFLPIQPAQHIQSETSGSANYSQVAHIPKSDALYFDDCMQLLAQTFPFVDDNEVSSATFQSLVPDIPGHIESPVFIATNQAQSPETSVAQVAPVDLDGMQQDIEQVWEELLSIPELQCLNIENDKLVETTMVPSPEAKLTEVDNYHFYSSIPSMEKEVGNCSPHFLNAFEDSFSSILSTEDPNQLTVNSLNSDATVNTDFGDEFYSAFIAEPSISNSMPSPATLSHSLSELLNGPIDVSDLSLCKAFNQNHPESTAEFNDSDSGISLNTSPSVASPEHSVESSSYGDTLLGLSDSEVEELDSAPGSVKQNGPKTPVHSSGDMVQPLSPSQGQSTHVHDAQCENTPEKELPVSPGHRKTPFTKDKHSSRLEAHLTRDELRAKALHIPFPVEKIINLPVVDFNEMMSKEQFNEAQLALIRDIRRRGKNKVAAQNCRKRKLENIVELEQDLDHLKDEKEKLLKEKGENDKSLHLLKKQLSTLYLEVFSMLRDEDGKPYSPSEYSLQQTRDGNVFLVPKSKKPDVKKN

[2] = target: T2, PICH (PLK-1 interacting checkpoint helicase) (human (endogenous in HeLa)) (UniProt Q2NKX8); experiment: co-IP
T2 sequence: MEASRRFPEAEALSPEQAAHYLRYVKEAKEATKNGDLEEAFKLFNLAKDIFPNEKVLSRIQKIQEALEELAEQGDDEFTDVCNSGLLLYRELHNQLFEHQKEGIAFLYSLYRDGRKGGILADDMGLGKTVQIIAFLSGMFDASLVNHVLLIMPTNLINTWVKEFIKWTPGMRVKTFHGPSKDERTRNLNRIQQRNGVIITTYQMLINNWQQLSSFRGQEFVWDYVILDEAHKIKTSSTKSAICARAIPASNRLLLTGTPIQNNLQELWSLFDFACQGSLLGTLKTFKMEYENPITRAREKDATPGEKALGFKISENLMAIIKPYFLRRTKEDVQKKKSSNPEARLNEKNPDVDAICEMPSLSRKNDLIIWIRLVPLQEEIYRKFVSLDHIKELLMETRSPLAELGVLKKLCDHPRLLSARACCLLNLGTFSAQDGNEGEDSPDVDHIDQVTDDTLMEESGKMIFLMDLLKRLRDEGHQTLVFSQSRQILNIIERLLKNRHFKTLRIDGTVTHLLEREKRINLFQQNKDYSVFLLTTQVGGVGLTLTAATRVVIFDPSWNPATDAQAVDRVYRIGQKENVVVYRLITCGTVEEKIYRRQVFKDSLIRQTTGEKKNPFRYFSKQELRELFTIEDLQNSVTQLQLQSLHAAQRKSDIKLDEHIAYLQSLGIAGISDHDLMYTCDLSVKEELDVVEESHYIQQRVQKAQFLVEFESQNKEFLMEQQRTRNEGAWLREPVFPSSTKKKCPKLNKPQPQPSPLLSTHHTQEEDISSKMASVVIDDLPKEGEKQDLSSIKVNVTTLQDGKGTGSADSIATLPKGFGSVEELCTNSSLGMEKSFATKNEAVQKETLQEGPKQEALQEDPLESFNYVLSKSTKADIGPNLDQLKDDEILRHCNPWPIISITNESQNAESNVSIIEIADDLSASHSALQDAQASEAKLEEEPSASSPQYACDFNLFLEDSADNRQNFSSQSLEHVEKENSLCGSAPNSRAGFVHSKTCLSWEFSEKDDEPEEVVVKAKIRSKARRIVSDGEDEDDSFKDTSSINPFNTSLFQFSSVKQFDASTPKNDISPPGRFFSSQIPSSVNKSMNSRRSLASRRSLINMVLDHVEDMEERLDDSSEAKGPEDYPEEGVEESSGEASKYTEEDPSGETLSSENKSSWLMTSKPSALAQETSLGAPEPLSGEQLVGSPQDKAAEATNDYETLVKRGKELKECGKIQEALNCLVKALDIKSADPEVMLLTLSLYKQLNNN

binding [1]: binds
B1: PICH (PLK-1 interacting checkpoint helicase) (protein, UniProt Q2NKX8 1-1250)
chain: T2 sequence

binding [2]: binds
B2: Nuclear factor erythroid 2 (NFE2)-related factor 2 (Nrf2) (protein, UniProt Q16236 1-605)
chain: T1 sequence

Reference: paper doi:10.1101/2021.07.21.453306
